According to article PMC3750411:
These are yes or no findings as the source states them, for the method shown. In cells and extracts the contact can be indirect.

Columns and labels:
[1] = molecular target: T1, human scavenger receptor class A type I (SR-AI) (human) (UniProt P21757); experiment: co-IP; total lysates of transfected COS-7 cells; rabbit anti-human SR-A antibody on Dynabead protein G, overnight at 4°C; Western blot with anti-BiP antibody
T1 sequence: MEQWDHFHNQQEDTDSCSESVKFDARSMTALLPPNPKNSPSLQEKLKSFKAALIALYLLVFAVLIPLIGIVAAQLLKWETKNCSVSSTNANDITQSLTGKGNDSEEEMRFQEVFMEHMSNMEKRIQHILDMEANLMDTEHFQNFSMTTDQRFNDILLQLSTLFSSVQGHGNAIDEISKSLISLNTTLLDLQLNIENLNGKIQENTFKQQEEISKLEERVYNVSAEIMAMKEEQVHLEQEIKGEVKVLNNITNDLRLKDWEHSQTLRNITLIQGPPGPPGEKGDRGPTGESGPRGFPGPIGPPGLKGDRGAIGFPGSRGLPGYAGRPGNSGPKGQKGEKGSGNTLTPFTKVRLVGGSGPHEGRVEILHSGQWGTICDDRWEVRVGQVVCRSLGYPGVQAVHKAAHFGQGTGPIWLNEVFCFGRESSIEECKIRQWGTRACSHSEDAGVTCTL

[2] = molecular target: T2, human scavenger receptor class A type II (SR-AII) (human) (UniProt P21757); experiment: as above
T2 sequence: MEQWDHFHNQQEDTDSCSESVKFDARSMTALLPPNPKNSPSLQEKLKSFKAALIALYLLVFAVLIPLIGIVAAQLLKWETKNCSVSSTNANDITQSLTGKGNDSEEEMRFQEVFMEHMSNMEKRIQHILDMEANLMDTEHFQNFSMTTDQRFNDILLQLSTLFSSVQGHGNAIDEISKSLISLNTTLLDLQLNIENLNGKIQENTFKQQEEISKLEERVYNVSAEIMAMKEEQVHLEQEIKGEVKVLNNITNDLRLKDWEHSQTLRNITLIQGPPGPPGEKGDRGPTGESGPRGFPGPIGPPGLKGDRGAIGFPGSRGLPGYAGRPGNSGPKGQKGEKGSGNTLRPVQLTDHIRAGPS

- binding [1]: no binding
- binding [2]: no binding
Substance: BiP (monkey (endogenous in COS-7))
